Laboratory results published in PMC6446838.
These are yes or no findings as the source states them, for the method shown. Binding seen in cells or lysates may run through a third protein. Some results given as binding are weak or reduced against the parent protein; the word gives no strength.

Sequences of proteins named here, by UniProt entry; tags and fusion partners are left off. Residues count along the entry.
UniProt Q3KQU3: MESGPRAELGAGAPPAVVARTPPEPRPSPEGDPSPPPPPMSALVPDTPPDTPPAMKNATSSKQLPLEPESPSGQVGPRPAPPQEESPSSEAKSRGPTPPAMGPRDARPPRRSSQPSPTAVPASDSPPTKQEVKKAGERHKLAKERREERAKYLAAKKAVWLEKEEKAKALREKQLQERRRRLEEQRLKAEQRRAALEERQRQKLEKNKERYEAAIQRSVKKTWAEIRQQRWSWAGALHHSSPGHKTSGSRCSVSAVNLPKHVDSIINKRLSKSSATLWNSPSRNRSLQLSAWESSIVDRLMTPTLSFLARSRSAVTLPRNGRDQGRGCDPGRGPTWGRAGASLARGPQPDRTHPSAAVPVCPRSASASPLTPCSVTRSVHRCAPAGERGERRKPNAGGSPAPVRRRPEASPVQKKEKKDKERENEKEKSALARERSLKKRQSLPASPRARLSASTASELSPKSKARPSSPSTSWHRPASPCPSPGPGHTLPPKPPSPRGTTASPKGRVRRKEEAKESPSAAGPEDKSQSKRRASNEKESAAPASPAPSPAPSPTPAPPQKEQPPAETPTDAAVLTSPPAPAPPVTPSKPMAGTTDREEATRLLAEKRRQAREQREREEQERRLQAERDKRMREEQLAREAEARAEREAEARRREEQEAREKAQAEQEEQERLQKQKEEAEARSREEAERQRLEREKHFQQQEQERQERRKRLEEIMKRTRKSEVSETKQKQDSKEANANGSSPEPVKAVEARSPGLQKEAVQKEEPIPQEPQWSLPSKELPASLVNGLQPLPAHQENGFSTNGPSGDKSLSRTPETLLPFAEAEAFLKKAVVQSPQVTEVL
UniProt Q14244: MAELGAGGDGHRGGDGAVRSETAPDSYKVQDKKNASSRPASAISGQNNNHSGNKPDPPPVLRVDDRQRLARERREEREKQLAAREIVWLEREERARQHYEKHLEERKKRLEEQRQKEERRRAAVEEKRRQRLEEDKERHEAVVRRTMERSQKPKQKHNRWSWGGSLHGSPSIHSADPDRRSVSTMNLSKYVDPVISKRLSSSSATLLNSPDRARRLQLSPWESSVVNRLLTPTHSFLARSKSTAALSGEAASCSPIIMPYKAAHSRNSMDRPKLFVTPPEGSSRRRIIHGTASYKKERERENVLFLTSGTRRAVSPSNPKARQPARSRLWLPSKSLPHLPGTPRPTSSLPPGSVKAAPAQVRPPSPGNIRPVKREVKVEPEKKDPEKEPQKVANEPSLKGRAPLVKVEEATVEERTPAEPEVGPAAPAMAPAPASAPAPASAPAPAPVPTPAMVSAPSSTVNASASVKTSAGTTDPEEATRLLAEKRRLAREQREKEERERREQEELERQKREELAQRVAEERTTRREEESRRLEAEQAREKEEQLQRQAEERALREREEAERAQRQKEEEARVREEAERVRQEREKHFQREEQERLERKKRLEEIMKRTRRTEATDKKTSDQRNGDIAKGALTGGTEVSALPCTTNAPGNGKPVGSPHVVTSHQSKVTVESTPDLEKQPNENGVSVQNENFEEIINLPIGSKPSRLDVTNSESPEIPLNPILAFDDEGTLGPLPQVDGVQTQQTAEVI
UniProt Q96T17: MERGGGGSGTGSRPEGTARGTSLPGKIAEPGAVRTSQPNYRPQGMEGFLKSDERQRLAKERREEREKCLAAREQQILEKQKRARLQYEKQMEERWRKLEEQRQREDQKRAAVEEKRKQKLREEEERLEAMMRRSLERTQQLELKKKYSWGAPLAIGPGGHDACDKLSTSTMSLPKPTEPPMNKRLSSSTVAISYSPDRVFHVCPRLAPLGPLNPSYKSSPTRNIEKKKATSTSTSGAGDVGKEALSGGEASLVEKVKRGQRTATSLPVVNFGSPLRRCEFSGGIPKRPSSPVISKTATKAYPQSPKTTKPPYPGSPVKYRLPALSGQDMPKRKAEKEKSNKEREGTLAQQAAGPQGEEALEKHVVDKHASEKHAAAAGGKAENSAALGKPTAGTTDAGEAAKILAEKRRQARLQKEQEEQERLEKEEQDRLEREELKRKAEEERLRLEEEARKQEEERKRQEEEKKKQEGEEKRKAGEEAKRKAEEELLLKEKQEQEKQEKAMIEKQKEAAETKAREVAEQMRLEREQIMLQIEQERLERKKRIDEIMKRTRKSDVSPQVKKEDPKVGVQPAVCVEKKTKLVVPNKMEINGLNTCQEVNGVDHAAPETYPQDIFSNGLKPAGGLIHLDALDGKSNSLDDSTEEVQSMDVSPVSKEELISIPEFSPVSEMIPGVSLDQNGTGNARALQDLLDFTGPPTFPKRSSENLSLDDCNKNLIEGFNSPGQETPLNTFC
UniProt P33176, residues 1-560: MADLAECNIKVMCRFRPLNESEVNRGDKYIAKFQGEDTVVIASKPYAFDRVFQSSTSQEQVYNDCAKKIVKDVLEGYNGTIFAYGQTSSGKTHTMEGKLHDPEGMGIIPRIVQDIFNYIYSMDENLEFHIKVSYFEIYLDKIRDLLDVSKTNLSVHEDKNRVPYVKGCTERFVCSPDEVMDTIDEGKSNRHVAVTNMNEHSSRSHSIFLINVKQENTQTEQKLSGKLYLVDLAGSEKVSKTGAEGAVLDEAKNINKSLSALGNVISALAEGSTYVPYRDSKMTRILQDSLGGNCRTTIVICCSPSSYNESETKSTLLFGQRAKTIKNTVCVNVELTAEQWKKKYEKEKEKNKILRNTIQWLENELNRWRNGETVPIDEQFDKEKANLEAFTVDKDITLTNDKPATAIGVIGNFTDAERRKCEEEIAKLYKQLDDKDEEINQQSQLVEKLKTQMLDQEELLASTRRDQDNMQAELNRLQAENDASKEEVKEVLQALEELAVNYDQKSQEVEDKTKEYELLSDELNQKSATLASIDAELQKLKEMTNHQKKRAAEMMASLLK

Columns and labels:
Assay in all cases: pull-down; streptavidin Dynabeads pull-down from HEK293T lysates coexpressing BirA, Bio-mCherry-tagged bait and GFP-tagged KIF5B prey; 20 mM Tris pH 7.5, 150 mM NaCl, 1 mM MgCl2, 1% Triton X-100 lysis; washes with 150 mM NaCl, 0.1% Triton X-100; 4°C; Western blotting
[1] = biological target: Bio-mCherry-MAP7D1 (UniProt Q3KQU3)
[2] = biological target: Bio-mCherry-MAP7 (UniProt Q14244)
[3] = biological target: Bio-mCherry-MAP7D2 (UniProt Q96T17)
[4] = biological target: T1, Bio-mCherry-MAP7D3 (UniProt Q8IWC1)
T1 sequence (chain, biotin on the BirA substrate tag (coexpressed biotin ligase BirA)): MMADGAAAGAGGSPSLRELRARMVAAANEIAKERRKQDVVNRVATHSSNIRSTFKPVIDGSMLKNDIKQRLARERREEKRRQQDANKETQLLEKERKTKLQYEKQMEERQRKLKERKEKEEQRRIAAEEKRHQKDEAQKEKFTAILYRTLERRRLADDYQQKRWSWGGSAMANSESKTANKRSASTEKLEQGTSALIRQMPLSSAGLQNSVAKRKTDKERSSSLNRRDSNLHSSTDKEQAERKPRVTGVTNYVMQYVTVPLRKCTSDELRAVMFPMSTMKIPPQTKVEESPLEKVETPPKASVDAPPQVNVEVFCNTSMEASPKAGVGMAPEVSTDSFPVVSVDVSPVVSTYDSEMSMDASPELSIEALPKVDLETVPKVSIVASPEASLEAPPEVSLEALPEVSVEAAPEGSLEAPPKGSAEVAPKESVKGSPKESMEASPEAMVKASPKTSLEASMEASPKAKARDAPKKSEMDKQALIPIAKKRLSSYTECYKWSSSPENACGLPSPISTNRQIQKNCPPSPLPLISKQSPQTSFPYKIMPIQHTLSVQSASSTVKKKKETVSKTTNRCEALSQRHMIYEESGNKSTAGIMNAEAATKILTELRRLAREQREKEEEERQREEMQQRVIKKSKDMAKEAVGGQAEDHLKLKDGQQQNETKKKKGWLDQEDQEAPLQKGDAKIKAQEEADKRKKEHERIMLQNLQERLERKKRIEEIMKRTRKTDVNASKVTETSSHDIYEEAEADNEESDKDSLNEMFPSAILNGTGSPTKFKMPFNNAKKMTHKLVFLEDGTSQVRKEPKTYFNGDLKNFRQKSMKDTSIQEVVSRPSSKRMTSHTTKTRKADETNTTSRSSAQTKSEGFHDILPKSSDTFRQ

- binding [1]: binds
- binding [2]: binds
- binding [3]: binds
- binding [4]: binds
Substance: K560-GFP (kinesin-1 KIF5B fragment 1–560), expressed in HEK293T cells for pull-down (from UniProt P33176 1-560) (domain or fragment)
